Assay results reported in patent publication US8912128B2 (priority 2012, dated 2014).
Some results were stated once for a whole list of compounds, not compound by compound. At least one compound was matched to its structure with a doubt left.

The chains behind the UniProt entries cited, without tags or fusion partners.
UniProt P01556, whole entry, looked up: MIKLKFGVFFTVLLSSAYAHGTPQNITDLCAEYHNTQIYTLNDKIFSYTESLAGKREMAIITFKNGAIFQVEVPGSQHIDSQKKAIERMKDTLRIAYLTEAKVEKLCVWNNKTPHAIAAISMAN

Target: whole cholera toxin (ctxAB5) (Vibrio cholerae serotype O1, UniProt P01556)
Type: binding

Compound | cholera toxin concentration at which the chip detects cholera toxin
OC[C@H]1O[C@@H](O[C@H]2[C@H](O)[C@@H](O)C(O)O[C@@H]2CO)[C@H](O)[C@@H](O)[C@H]1O (some centres unmarked) [lactose] | ≥ 5 µg/mL
CC(=O)N[C@H]1[C@H]([C@H](O)[C@H](O)CO)OC(O)(C(=O)O)C[C@@H]1O (some centres unmarked) [sialic acid] | ≥ 5 µg/mL
